Data as given in PubChem BioAssay AID1259425 (University of Nebraska Medical Center, 2018)
The deposit covers about 14,000 reagents; below is a part drawn at random. The record does not give: the time to read-out.

- Test: 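Compare each knockdown with KSR1 silencing using changes in marker transcripts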 (primary screen)
- Cell system: HCT116 human colon cancer cells
- Reagent: siRNA pool against human genes, 50 nM siRNA
- Detection: 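After 50 nM siRNA pool, branched-DNA assay measures six marker transcripts per well, minus blank, normalised to the geometric mean of two housekeeping transcripts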
- Scale: BNIP3L mRNA: higher = more BNIP3L transcript after knockdown; NDRG1 mRNA: higher = more NDRG1 transcript after knockdown; BNIP3 mRNA: higher = more BNIP3 transcript after knockdown; ALDOC mRNA: higher = more ALDOC transcript after knockdown; ACSL5 mRNA: higher = more ACSL5 transcript after knockdown

target gene | BNIP3L mRNA, set 1 | NDRG1 mRNA, set 1 | BNIP3 mRNA, set 1 | ALDOC mRNA, set 1 | ACSL5 mRNA, set 1
PHF14 (PHD finger protein 14) | 0.125 | 0.731 | 0.371 | 0.0488 | 0.51
ASPHD2 (aspartate beta-hydroxylase domain containing 2) | 0.195 | 0.266 | 0.303 | 0.0245 | 0.228
GEM (GTP binding protein overexpressed in skeletal muscle) | 0.195 | 0.153 | 0.391 | 0.0257 | 0.354
SLC45A2 | 0.104 | 0.186 | 0.357 | 0.0292 | 0.133
UVRAG (UV radiation resistance associated) | 0.231 | 0.108 | 0.282 | 0.0604 | 0.138
KREMEN1 (kringle containing transmembrane protein 1) | 0.118 | 0.247 | 0.287 | 0.0155 | 0.0782
ASIC1 (acid sensing ion channel subunit 1) | 0.117 | 0.367 | 0.62 | 0.068 | 0.15
MLX (MAX dimerization protein MLX) | 0.126 | 0.269 | 0.33 | 0.00837 | 0.219
P2RX5 (purinergic receptor P2X 5) | 0.169 | 0.353 | 0.244 | 0.0168 | 0.314
ALOX5AP (arachidonate 5-lipoxygenase activating protein) | 0.0946 | 0.109 | 0.137 | 0.0146 | 0.0951
GABRR2 (gamma-aminobutyric acid type A receptor subunit rho2) | 0.0459 | 0.49 | 0.22 | 0.0123 | 0.172
PPRC1 (PPARG related coactivator 1) | 0.102 | 0.569 | 0.466 | 0.00878 | 0.193
KIF27 (kinesin family member 27) | 0.08 | 0.528 | 0.338 | 0.0213 | 0.231
ATP6V1B2 (ATPase H+ transporting V1 subunit B2) | 0.185 | 0.754 | 0.519 | 0.173 | 0.218
HAP1 (huntingtin associated protein 1) | 0.119 | 0.131 | 0.265 | 0.0218 | 0.131
ZNF706 (zinc finger protein 706) | 0.109 | 0.0907 | 0.344 | 0.0237 | 0.114
TRPM2 | 0.0782 | 0.131 | 0.216 | 0.00862 | 0.0844
OR52A1 (olfactory receptor family 52 subfamily A member 1) | 0.147 | 0.177 | 0.34 | 0.0358 | 0.256
PKM (pyruvate kinase M1/2) | 0.0957 | 0.136 | 0.314 | 0.0155 | 0.539
SPINT1 (serine peptidase inhibitor, Kunitz type 1) | 0.107 | 0.213 | 0.242 | 0.0231 | 0.144
TBC1D17 (TBC1 domain family member 17) | 0.167 | 2.68 | 0.38 | 0.0249 | 0.235
EXO5 (exonuclease 5) | 0.0436 | 0.223 | 0.281 | 0.0416 | 0.207
PCDH1 (protocadherin 1) | 0.236 | 0.195 | 0.522 | 0.0115 | 0.264
MBD4 (methyl-CpG binding domain 4, DNA glycosylase) | 0.112 | 0.273 | 0.308 | 0.0244 | 0.192
ADAM21 (ADAM metallopeptidase domain 21) | 0.11 | 0.219 | 0.292 | 0.0217 | 0.233
CDA (cytidine deaminase) | 0.0916 | 0.187 | 0.344 | 0.0511 | 0.0998
USF2 (upstream transcription factor 2, c-fos interacting) | 0.114 | 0.137 | 0.246 | 0.0167 | 0.139
NFIA (nuclear factor I A) | 0.109 | 0.201 | 0.31 | 0.0421 | 0.202
C10orf95 (chromosome 10 open reading frame 95) | 0.163 | 0.265 | 0.288 | 0.0936 | 0.194
RAMP1 (receptor activity modifying protein 1) | 0.0963 | 0.342 | 0.261 | 0.0697 | 0.237
DUSP2 (dual specificity phosphatase 2) | 0.175 | 0.148 | 0.54 | 0.00619 | 0.375
CDR2L (cerebellar degeneration related protein 2 like) | 0.125 | 0.0812 | 0.272 | 0.00992 | 0.0911
NKX2-5 (NK2 homeobox 5) | 0.08 | 0.138 | 0.338 | 0.0109 | 0.125
TPRKB (TP53RK binding protein) | 0.103 | 1.05 | 0.444 | 0.0216 | 0.299

Reformatted: 5 of the entries above.
RAMP1 (receptor activity modifying protein 1) | BNIP3L mRNA, set 1: 0.0963; NDRG1 mRNA, set 1: 0.342; BNIP3 mRNA, set 1: 0.261; ALDOC mRNA, set 1: 0.0697; ACSL5 mRNA, set 1: 0.237
DUSP2 (dual specificity phosphatase 2) | BNIP3L mRNA, set 1: 0.175; NDRG1 mRNA, set 1: 0.148; BNIP3 mRNA, set 1: 0.54; ALDOC mRNA, set 1: 0.00619; ACSL5 mRNA, set 1: 0.375
CDR2L (cerebellar degeneration related protein 2 like) | BNIP3L mRNA, set 1: 0.125; NDRG1 mRNA, set 1: 0.0812; BNIP3 mRNA, set 1: 0.272; ALDOC mRNA, set 1: 0.00992; ACSL5 mRNA, set 1: 0.0911
NKX2-5 (NK2 homeobox 5) | BNIP3L mRNA, set 1: 0.08; NDRG1 mRNA, set 1: 0.138; BNIP3 mRNA, set 1: 0.338; ALDOC mRNA, set 1: 0.0109; ACSL5 mRNA, set 1: 0.125
TPRKB (TP53RK binding protein) | BNIP3L mRNA, set 1: 0.103; NDRG1 mRNA, set 1: 1.05; BNIP3 mRNA, set 1: 0.444; ALDOC mRNA, set 1: 0.0216; ACSL5 mRNA, set 1: 0.299
